Drawing on article PMC7861556, this text covers binding for 1 molecule.

Sequences of proteins named here, by UniProt entry; tags and fusion partners are left off.
UniProt Q8CIN4: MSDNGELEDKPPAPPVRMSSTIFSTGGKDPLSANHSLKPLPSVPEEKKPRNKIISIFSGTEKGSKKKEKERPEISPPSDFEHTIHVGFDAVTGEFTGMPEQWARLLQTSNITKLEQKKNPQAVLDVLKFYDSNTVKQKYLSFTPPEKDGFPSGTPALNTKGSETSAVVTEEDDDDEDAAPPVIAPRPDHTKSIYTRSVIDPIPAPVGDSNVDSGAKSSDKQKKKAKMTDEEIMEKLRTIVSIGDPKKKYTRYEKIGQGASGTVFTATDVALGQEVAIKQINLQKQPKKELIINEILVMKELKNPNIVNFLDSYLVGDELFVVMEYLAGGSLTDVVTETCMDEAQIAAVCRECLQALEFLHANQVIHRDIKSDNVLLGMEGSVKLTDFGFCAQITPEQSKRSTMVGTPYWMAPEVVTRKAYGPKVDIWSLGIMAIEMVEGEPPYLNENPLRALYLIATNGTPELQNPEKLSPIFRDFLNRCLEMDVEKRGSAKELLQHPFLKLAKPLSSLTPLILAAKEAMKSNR

No constants are given. Whether binding was seen depends on the method and setting. In cells and extracts the contact can be indirect. Some results given as binding are weak or reduced against the parent protein; the word gives no strength.

This assay concerns the target Serine/threonine-protein kinase PAK2 (mouse (endogenous in Neuro2A)) (UniProt Q8CIN4). The assay can be described thus: co-IP; PAK2 immunoprecipitated with anti-PAK2 antibody-conjugated beads from lysates of Neuro2A cells treated without or with PQA-18 in the absence or presence of anti-IL-31Rα antibody; blotted with anti-α-PIX and anti-PAK2 antibodies.

B1: Rho guanine nucleotide exchange factor 6 α-PIX (protein, UniProt Q8K4I3 1-771)
chain: MNPEERLVTWLISLGVLESPKKTVCDPEEFLKSSLKNGVVLCKLINRLLPGSVEKYCLEPQTEADCIDNINDFLKGCATLQVEVFEPDDLYSGANFSKVLNTLLAVNKATEDQLSERPCGRSSSLSAATSSQTNPQVAVPSTAPEQHSEEKAEMTENGSHQLIVKARFNFKQTNEDELSVCKGDIIYVTRVEEGGWWEGTLNGRTGWFPSNYVREIKPSERPLSPKAIKGFDTAPLTKNYYTVVLQNILDTEKEYAKELQSLLVTYLRPLQSNNNLSTVEFTCLLGNFEEVCTFQQTLCQALEECSKFPENQHKVGGCLLNLMPHFKSMYLAYCANHPSAVNVLTQHSDDLERFMENQGASSPGILILTTSLSKPFMRLEKYVTLLQELERHMEDTHPDHQDILKAIIAFKTLMGQCQDLRKRKQLELQILSEPIQAWEGDDIKTLGNVIFMSQVVMQHGACEEKEERYFLLFSSVLIMLSASPRMSGFMYQGKIPIAGMVVNRLDEIEGSDCMFEITGSTVERIVVHCNNNQDFQEWMEQLNRLTKGPTSCGSLSKTSSSSCSTHSSFSSTGQPRGPLEPPQIIKPWSLSCLRPAPPLRPSAALGYKERMSYILKESSKSPKTMKKFLHKRKTERKASEEEYVIRKSTAALEEDAQILKVIEAYCTSASFQQGTRKDSVPQVLLPEEEKLIIEETRSNGQTIIEEKSLVDTVYALKDEVKELKQENKKMKQCLEEELKSRKDLEKLVRKLLKQTDECIRSESSSKTSILQ
Consider B1, for which the binding result was “binds”.
